Measured values reported in patent US20090092595A1, “Suppression of sPLA2-integrin binding for treating an inflammatory condition” (REGENTS OF THE UNIVERSITY OF CALIFORNIA, priority 2007, published 2009).
Positions count from the first letter of the chain named. Names may count otherwise. These are yes or no findings as the source states them, for the method shown. Binding can be weak; no strength is given. Blank lines part the entries; values can stand above or below the binder they belong to.

Molecular target: recombinant soluble integrin αvβ3
Experiment: ELISA-type assay, soluble αvβ3 on immobilized mutant sPLA2-IIA

- binding: binds
B1: sPLA2-IIA R74E mutant (enzyme, human, UniProt P14555 21-144, looked up, not shown: small tags and cut ends)
chain: NLVNFHRMIKLTTGKEAALSYGFYGCHCGVGGRGSPKDATDRCCVTHDCCYKRLEKRGCGTKFLSYKFSNSGSEITCAKQDSCRSQLCECDKAAATCFARNKTTYNKKYQYYSNKHCRGSTPRC

- binding: binds
B2: sPLA2-IIA R42E mutant (enzyme, human, UniProt P14555 21-144, looked up, not shown: small tags and cut ends)
chain: B1 chain with R42E, E74R

- binding: binds
B3: sPLA2-IIA R100E mutant (enzyme, human, UniProt P14555 21-144, looked up, not shown: small tags and cut ends)
chain: B1 chain with E74R, R100E

- binding: binds
B4: sPLA2-IIA R74E/R100E mutant (integrin-binding-defective) (enzyme, human, UniProt P14555 21-144, looked up)
chain: B1 chain with R100E
notes: mature; the printed positions appear to count on the mature protein; not shown: N-terminal vector-encoded residues with His tag from the PET28a/amp vector
